System: dechlorinating bacteria known to convert PCE to ethene
Assay: Set D: Efficiency by COD Analysis
Type: cell-based, Dehalococcoides and Dehalobacter spp.
From the text: Efficiency may be defined as the percent of electron donor utilized for dechlorination, and may be calculated by dividing the pmoles of Chloride ion generated by the pmoles of electron donor consumed as measured by either Volatile Fatty Acid (VFA) analysis (Sets B, C, and G) or Chemical Oxygen Demand (COD) analysis (Set D and E). The Relative Efficiency of the electron donor utilization may be defined as the Efficiency of the Electron Donor divided by the Efficiency of the Lactate Control.
The COD analysis calculates the utilization of electron donor by measuring the starting COD and the final COD taking the difference and converting mg/L to pmoles of electrons. The pmoles of electrons used for dechlorination was determined from the calculated Chloride produced leading to an Efficiency and Relative Efficiency of electron donor utilization as compared to lactate.

For `CC(O)C(=O)[O-].[Na+]` (stereo not drawn) [Lactate Control, sodium lactate], the “Final COD” value was 777 mg/L, the “ΔCOD μmoles e^-” value was 2283 μmoles e^- and the “μmoles e^− dechlor.” value was 131 μmoles e^−.
